Screening data, single-dose tests

The chains behind the UniProt entries cited, without tags or fusion partners. Residues count along the entry.
UniProt Q8IDJ8, 1-583: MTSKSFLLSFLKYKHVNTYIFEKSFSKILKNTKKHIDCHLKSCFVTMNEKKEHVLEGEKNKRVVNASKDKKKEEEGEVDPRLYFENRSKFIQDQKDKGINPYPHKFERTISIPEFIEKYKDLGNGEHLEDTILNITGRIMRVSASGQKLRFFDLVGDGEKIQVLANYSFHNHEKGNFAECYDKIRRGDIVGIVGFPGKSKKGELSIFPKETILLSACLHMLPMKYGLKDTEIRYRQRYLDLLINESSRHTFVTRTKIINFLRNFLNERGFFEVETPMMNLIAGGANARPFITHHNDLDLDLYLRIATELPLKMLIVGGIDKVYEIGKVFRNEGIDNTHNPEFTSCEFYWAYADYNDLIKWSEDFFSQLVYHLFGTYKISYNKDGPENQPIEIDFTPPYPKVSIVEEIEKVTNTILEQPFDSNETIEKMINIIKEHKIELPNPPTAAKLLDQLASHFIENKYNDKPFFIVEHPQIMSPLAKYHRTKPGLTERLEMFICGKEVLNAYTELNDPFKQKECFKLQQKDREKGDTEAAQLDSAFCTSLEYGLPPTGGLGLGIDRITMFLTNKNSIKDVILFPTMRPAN
UniProt A4I591, 1-473: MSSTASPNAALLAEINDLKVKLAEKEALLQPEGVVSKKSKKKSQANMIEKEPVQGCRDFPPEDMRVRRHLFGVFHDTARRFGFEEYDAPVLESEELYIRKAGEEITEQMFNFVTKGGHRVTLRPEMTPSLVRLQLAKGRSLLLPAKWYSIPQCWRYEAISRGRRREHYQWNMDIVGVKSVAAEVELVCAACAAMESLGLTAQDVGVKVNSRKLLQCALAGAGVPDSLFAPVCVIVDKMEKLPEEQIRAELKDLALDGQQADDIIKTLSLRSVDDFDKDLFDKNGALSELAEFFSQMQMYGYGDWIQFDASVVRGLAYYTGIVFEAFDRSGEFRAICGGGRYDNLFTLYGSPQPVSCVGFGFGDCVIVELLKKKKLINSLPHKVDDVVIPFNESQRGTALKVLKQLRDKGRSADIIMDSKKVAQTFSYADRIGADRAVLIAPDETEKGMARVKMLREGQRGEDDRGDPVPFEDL
UniProt Q4DA54, 1-478: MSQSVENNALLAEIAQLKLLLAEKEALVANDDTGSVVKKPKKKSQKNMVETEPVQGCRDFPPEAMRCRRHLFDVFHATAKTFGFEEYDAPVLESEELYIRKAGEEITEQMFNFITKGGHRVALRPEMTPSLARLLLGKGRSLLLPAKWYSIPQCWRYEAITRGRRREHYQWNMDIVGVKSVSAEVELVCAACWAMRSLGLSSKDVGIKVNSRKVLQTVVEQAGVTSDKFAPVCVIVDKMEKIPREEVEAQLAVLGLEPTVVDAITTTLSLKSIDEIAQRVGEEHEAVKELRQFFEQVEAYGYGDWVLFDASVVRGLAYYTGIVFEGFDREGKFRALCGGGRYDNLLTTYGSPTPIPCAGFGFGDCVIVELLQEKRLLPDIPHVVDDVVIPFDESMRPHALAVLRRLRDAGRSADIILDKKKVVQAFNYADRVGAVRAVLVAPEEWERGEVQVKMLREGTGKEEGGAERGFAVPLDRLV
UniProt P9WPC5, whole entry: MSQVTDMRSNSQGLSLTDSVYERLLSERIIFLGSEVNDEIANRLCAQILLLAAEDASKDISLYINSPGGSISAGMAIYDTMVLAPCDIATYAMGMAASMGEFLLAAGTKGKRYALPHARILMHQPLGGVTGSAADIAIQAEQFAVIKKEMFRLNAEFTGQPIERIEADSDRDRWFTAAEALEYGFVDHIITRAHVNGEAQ
UniProt P9WPC3, whole entry partner: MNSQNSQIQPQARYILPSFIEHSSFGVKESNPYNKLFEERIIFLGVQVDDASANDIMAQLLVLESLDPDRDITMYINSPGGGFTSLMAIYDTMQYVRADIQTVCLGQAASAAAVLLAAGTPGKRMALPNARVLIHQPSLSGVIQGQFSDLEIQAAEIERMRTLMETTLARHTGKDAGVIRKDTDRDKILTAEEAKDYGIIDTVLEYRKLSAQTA

PfKRS1: 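Lysine-tRNA ligase, Plasmodium falciparum 3D7 (UniProt Q8IDJ8). Enzyme assay of the cytosolic lysyl-tRNA synthetase in 384-well plates, read by luminescence. Compounds at 30 µM. Direction is inferred from only a few compounds that gave an IC50; most scored high, so higher reads as stronger inhibition. Size under these conditions: about 69,000 compounds, about 49 of them at 50% or above in at least one test.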
LiHisRS: 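Histidine-tRNA ligase, Leishmania infantum (UniProt A4I591). Enzyme assay of histidyl-tRNA synthetase; the read-out is not stated. Compounds at 30 µM. Higher reads as stronger inhibition (inferred: compounds with an IC50 in retests scored well above the rest). The assay is labelled LdHisRS but filed under L. infantum. About 69,000 compounds were tested under these conditions; 0.6% (about 410) showed 50% or more at least once.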
TcHisRS: 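Enzyme assay of histidyl-tRNA synthetase; the read-out is not stated. Target: Histidine-tRNA ligase, Trypanosoma cruzi CL Brener (UniProt Q4DA54). Tested at 30 µM. The record gives no direction; compounds that gave an IC50 in retests scored well above the rest, so higher reads as stronger inhibition. Size under these conditions: about 69,000 compounds, about 31 of them at 50% or above in at least one test.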
Leishmania in macrophages: 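Cell assay of Leishmania donovani living inside macrophages; the read-out is not stated. Compounds at 30 µM. Direction is inferred from retests: higher values go with stronger inhibition. Size under these conditions: about 69,000 compounds, about 1,000 of them at 50% or above in at least one test.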
ClpP1P2: 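Protease assay of ClpP1P2, read by the AMC dye that it sets free. Target: ClpP1P2, Mycobacterium tuberculosis (UniProt P9WPC5 and UniProt P9WPC3). Concentration: 50 µM. Direction is inferred from only a few compounds that gave an IC50; most scored high, so higher reads as stronger inhibition. Most other retested compounds had strongly negative values. Size under these conditions: about 69,000 compounds, about 10 of them at 50% or above in at least one test.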

The filed quantity is “Percent Effect” (%).
How 0% and 100% were set is not recorded. Most values in the screen are low, and negative values occur.
The compounds are a random part of those screened.

With COc1cccc(CN2CCOC(c3cnccn3)C2)c1F (stereo not drawn) the screen gave PfKRS1: 0.8509%; LiHisRS: 13.1%; TcHisRS: 6.844%; Leishmania in macrophages: -0.334%; ClpP1P2: -10.49%. CC(C)CN(Cc1ccccn1)Cc1ccccc1OCC(=O)O gave PfKRS1: 3.369%; LiHisRS: 13.95%; TcHisRS: 11.9%; Leishmania in macrophages: -4.317%; ClpP1P2: -1.689%. O=C(CC1CC1)N(Cc1cccnc1)CC1CCN(C2CCCC2)CC1 read PfKRS1: 1.972%; LiHisRS: 8.571%; TcHisRS: 7.143%; Leishmania in macrophages: 24.25%; ClpP1P2: 0.2787%. With CC(C)NC(=O)C1(CC2CC(c3ccc(F)cc3)=NO2)CCNCC1 (stereo not drawn) the screen gave PfKRS1: 1.182%; LiHisRS: 10.74%; TcHisRS: 4.857%; ClpP1P2: -26.72%.

With CC(=O)N1CCCN(C(=O)c2ccc(Sc3ccccn3)cc2)CC1 the screen gave PfKRS1: 1.136%; LiHisRS: 12.09%; TcHisRS: 3.093%; Leishmania in macrophages: -9.506%; ClpP1P2: 1.664%. CN1CCN(C2COC3(CCN(CC4CC4)CC3)C2)CC1.O=C(O)C(F)(F)F.O=C(O)C(F)(F)F.O=C(O)C(F)(F)F (stereo not drawn) read Leishmania in macrophages: 24.14%. Result for CN(CCc1ccccc1)Cc1c(C2CC2)[nH]c2ncccc12 was PfKRS1: 1.642%; LiHisRS: 8.451%; TcHisRS: 3.03%; Leishmania in macrophages: 18.97%; ClpP1P2: -10.56%. Cc1oc(NC(=O)C(C)N2CCN(C(=O)C3CC3)CC2)c(C#N)c1C (stereo not drawn) gave PfKRS1: 1.168%; LiHisRS: 14.53%; TcHisRS: 5.556%; Leishmania in macrophages: 9.799%; ClpP1P2: 4.048%.

Result for O=C(Cc1cccc(F)c1)N1CCc2ncnc(NC3CC3)c2CC1.O=C(O)C(F)(F)F was Leishmania in macrophages: 32.08%. With O=C(NCc1nnc2n1CCCCC2)N(Cc1ccncc1)C1CC1 the screen gave PfKRS1: 3.891%; LiHisRS: 20.55%; TcHisRS: 2.956%; Leishmania in macrophages: 30.94%; ClpP1P2: -8.175%. Result for CCN(Cc1ccoc1)C(=O)c1cc(S(N)(=O)=O)c(C)o1 was PfKRS1: 9.209%; LiHisRS: 2.941%; TcHisRS: 3.704%; Leishmania in macrophages: 21.79%; ClpP1P2: -4.355%. CCC(O)(CNCc1ncc[nH]1)c1ccc(Br)cc1 (stereo not drawn) read PfKRS1: 0.9863%; LiHisRS: 11.43%; TcHisRS: -4.124%; Leishmania in macrophages: 25.61%; ClpP1P2: -7.294%.

For O=C(NCCc1coc(-c2ccc(F)cc2)n1)NC1CC1 the result was PfKRS1: 1.375%; LiHisRS: 12.07%; TcHisRS: 9.04%; Leishmania in macrophages: 15.99%; ClpP1P2: -34.68%. For COc1cccc2c1OCC(CNC(=O)COCC(F)(F)C(F)F)C2 (stereo not drawn) the result was PfKRS1: -2.288%; LiHisRS: 19.74%; TcHisRS: -3.261%; Leishmania in macrophages: -8.575%; ClpP1P2: 3.749%. With Cc1cccc(N2CC3(CCN(Cc4nccn4C)C3)CC2=O)c1.O=C(O)C(F)(F)F (stereo not drawn) the screen gave Leishmania in macrophages: 24.22%. [H][C@]12CC[C@]([H])(CN(C(=O)Cc3cnc(C)[nH]c3=O)C1)N(CC1CCC1)C2 gave Leishmania in macrophages: 14.18%.

Result for O=C1CNCC(C(=O)N2CC(Oc3ccccc3Cl)C2)N1 (stereo not drawn) was PfKRS1: 2.609%; LiHisRS: 17.5%; TcHisRS: 10.53%; Leishmania in macrophages: -6.31%; ClpP1P2: -1.12%. COC(=O)C1CCN(C(=O)c2cc(Br)ccc2-n2cnnn2)CC1 read PfKRS1: 1.764%; LiHisRS: 10.87%; TcHisRS: 5%; Leishmania in macrophages: -23.49%; ClpP1P2: -17.26%. Cn1c(C(F)(F)F)nn(CCNC(=O)NCc2ccccc2)c1=O gave PfKRS1: 2.817%; LiHisRS: 17.31%; TcHisRS: -0.8264%; Leishmania in macrophages: 13.32%; ClpP1P2: -21.95%. CC(C)N(CC(N)=O)CC(=O)NCCc1c(F)cccc1F gave PfKRS1: 0.0764%; LiHisRS: 19.18%; TcHisRS: 3.784%; Leishmania in macrophages: 9.144%; ClpP1P2: 3.639%.

Once more, the final 2:

Compound	PfKRS1	LiHisRS	TcHisRS	Leishmania in macrophages	ClpP1P2
Cn1c(C(F)(F)F)nn(CCNC(=O)NCc2ccccc2)c1=O	2.817%	17.31%	-0.8264%	13.32%	-21.95%
CC(C)N(CC(N)=O)CC(=O)NCCc1c(F)cccc1F	0.0764%	19.18%	3.784%	9.144%	3.639%

The values are deposited in ChEMBL (CHEMBL3988442, “University of Dundee, Small-Polar-MMV Screening Library” (2021)).